Reference: PubChem BioAssay AID1224826 (NIAID, 2016)
Screen: 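Genes that change LPS-induced Tnf promoter activity in mouse macrophages when knocked down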 (primary screen). Cells: RAW264.7 G9 macrophages from mouse bearing reporters for p65 (GFP) and the Tnf promoter (mCherry). Reagent: siRNA pool against mouse genes, 100 nM. Timing: 16 h of LPS stimulation, after 2 days of siRNA transfection. Conditions: bacterial lipopolysaccharide (Salmonella minnesota R595), 10 ng/ml. Measured: 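Imaged Tnf reporter mCherry in nuclei, minus background, normalised per plate to the median and expressed as robust z-scores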. Reading the numbers: Tnf reporter robust z-score: higher = stronger Tnf promoter reporter signal after LPS; Tnf reporter intensity: higher = stronger Tnf promoter reporter signal. Rule for the call: 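a well counts as active at a score of -1.3 or below (Tlr4 knock-down control median) or above 3 (raised signal); controls and wells holding fewer than 50 cells are excluded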. Meaning of the calls: active = Tnf reporter clearly lowered or raised; inactive = no clear change in Tnf reporter.
This is one part, drawn at random, of about 17,000 reagents. Of all reagents, about 1,110 (6.6%) were called active. 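Active means lowered or raised reporter signal; replicate intensities are raw and not normalised per plate.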

gene	Tnf reporter robust z-score	fewer than 50 cells in well	Tnf reporter intensity, replicate 1	Tnf reporter intensity, replicate 2	Outcome
Pals1 (GeneID 56217)	1.74	enough cells in well	257	226	inactive
Tnfaip8l1 (GeneID 66443)	3.04	enough cells in well	458	157	active
Idi2 (GeneID 320581)	0.38	enough cells in well	188	79.3	inactive
Fmo9 (GeneID 240894)		fewer than 50 cells per well; well left out of calls	281	175	inactive
Gm57858 (GeneID 241943)	0.46	enough cells in well	115	211	inactive
Slc22a17 (GeneID 59049)	1.47	enough cells in well	128	176	inactive
Slc60a2a (GeneID 215929)	-0.43	enough cells in well	186	150	inactive
Szt2 (GeneID 230676)	0.41	enough cells in well	0	187	inactive
Sec16a (GeneID 227648)	0.7	enough cells in well	212	197	inactive
Ubtd1 (GeneID 226122)	0.99	enough cells in well	267	287	inactive
Kdm5c (GeneID 20591)	-0.65	enough cells in well	147	105	inactive
Gmpr (GeneID 66355)	1.19	enough cells in well	319	276	inactive
Ccpg1 (GeneID 72278)	0.51	enough cells in well	293	243	inactive
Mrps27 (GeneID 218506)	1.17	enough cells in well	329	141	inactive
Lyar (GeneID 17089)	-0.2	enough cells in well	177	91.9	inactive
Txnrd3 (GeneID 232223)	-0.29	enough cells in well	220	191	inactive
Gyg1 (GeneID 27357)	0.34	enough cells in well	240	205	inactive
Npas3 (GeneID 27386)	0.3	enough cells in well	265	118	inactive
Noc3l (GeneID 57753)	-0.41	enough cells in well	124	213	inactive
Mettl24 (GeneID 327747)	-0.75	enough cells in well	143	132	inactive
Tex13a (GeneID 67944)	-0.54	enough cells in well	176	54.1	inactive
Zpld1 (GeneID 239852)	1.52	enough cells in well	273	285	inactive
Kdelr2 (GeneID 66913)	0.27	enough cells in well	242	179	inactive
Plekhh2 (GeneID 213556)	1.41	enough cells in well	304	277	inactive
Ssrp1 (GeneID 20833)	-0.72	enough cells in well	192	179	inactive
Asf1a (GeneID 66403)	-0.59	enough cells in well	111	125	inactive
Lrp4 (GeneID 228357)	0.43	enough cells in well	202	180	inactive
Tbc1d8b (GeneID 245638)	0.1	enough cells in well	192	189	inactive
Atm (GeneID 11920)	0.71	enough cells in well	140	195	inactive
Adam28 (GeneID 13522)	-0.92	enough cells in well	116	99.9	inactive
Gldn (GeneID 235379)	2.43	enough cells in well	397	257	inactive
Mcpt2 (GeneID 17225)	0.01	enough cells in well	176	159	inactive
Elof1 (GeneID 66126)	-0.51	enough cells in well	262	51.3	inactive
Col1a1 (GeneID 12842)	0.16	enough cells in well	213	264	inactive
Gbp4 (GeneID 17472)	-0.02	enough cells in well	113	168	inactive
Klrd1 (GeneID 16643)	0.09	enough cells in well	265	142	inactive
Tmem38a (GeneID 74166)	-0.77	enough cells in well	211	46.5	inactive
Vmn1r190-ps (GeneID 252908)	0.79	enough cells in well	156	109	inactive
Tmtc1 (GeneID 387314)	0.36	enough cells in well	217	249	inactive
Hnf4a (GeneID 15378)	-0.2	enough cells in well	221	176	inactive
Hdhd3 (GeneID 72748)	0.24	enough cells in well	162	179	inactive
Mff (GeneID 75734)		fewer than 50 cells per well; well left out of calls	112	65.3	inactive
B930095G15Rik (GeneID 320268)	0.32	enough cells in well	224	235	inactive
Gsdmc2 (GeneID 331063)	-0.32	enough cells in well	214	138	inactive
Tmem59 (GeneID 56374)	-2.01	enough cells in well	52	42.4	active
Slc4a3 (GeneID 20536)	1.49	enough cells in well	366	191	inactive
Nkiras1 (GeneID 69721)	0.72	enough cells in well	302	224	inactive
Rbak (GeneID 57782)	-0.15	enough cells in well	294	194	inactive
Zfp879 (GeneID 214779)	-0.12	enough cells in well	182	171	inactive
Npffr1 (GeneID 237362)	-1.17	enough cells in well	130	179	inactive
Ammecr1 (GeneID 56068)	-0.99	enough cells in well	67.4	164	inactive
Idua (GeneID 15932)	0.67	enough cells in well	229	287	inactive
Npas4 (GeneID 225872)	0.94	enough cells in well	388	184	inactive
Pnpt1 (GeneID 71701)	-0.34	enough cells in well	124	105	inactive
Uchl3 (GeneID 50933)	-1.68	enough cells in well	100	98	active
Cacng2 (GeneID 12300)	-0.38	enough cells in well	145	151	inactive
Sertad4 (GeneID 214791)		fewer than 50 cells per well; well left out of calls	121	149	inactive
Or6b2 (GeneID 259040)	1.04	enough cells in well	249	160	inactive

Limited to “Tnf reporter robust z-score”, for 9 of the entries above:
Mcpt2 (GeneID 17225): 0.01
Elof1 (GeneID 66126): -0.51
Col1a1 (GeneID 12842): 0.16
Gbp4 (GeneID 17472): -0.02
Klrd1 (GeneID 16643): 0.09
Tmem38a (GeneID 74166): -0.77
Vmn1r190-ps (GeneID 252908): 0.79
Tmtc1 (GeneID 387314): 0.36
Hnf4a (GeneID 15378): -0.2
